PubChem BioAssay AID1259405 – NCATS | 2018
Shown is an unselected part of about 50,000 reagents. About 4,000 of all reagents (8%) count as active. 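Mouse siRNA library applied to hamster cells; one well for each siRNA.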 Reagents against one gene are numbered here. No sequences are given here.

- Purpose: 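Mouse-designed siRNAs used to find CHO productivity engineering targets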 (primary screen)
- System: Chinese hamster CHO-K1 ovary cells with stable secreted eGFP expression
- Knock-down reagent: single siRNA against mouse genes, 0.8 pmol siRNA per well (2 µl of 400 nM stock)
- Timing: 3 days
- Read-out: 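Percent of the per-plate non-targeting control median for intracellular GFP per well by laser scanning cytometry and for cell viability by ATP luminescence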
- Scale: GFP, % of control: higher = more GFP per well, higher productivity; viability (ATP), % of control: higher = more viable cells (more ATP)
- Active means: 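Called active when intracellular GFP, relative to negative control, is at or above 120%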

{"gene":"Gpm6b (glycoprotein m6b)","reagent":1,"GFP, % of control":66.6,"viability (ATP), % of control":79.8,"call":"inactive"}
{"gene":"Gpm6b (glycoprotein m6b)","reagent":2,"GFP, % of control":64.5,"viability (ATP), % of control":88.7,"call":"inactive"}
{"gene":"Gpm6b (glycoprotein m6b)","reagent":3,"GFP, % of control":81.2,"viability (ATP), % of control":85.2,"call":"inactive"}
{"gene":"Mdc1 (mediator of DNA damage checkpoint 1)","reagent":1,"GFP, % of control":128,"viability (ATP), % of control":96.5,"call":"active"}
{"gene":"Mdc1 (mediator of DNA damage checkpoint 1)","reagent":2,"GFP, % of control":67.8,"viability (ATP), % of control":76.7,"call":"inactive"}
{"gene":"Mdc1 (mediator of DNA damage checkpoint 1)","reagent":3,"GFP, % of control":73.3,"viability (ATP), % of control":68.2,"call":"inactive"}
{"gene":"Aox2 (aldehyde oxidase 2)","reagent":1,"GFP, % of control":69,"viability (ATP), % of control":95.8,"call":"inactive"}
{"gene":"Aox2 (aldehyde oxidase 2)","reagent":2,"GFP, % of control":40.6,"viability (ATP), % of control":31.7,"call":"inactive"}
{"gene":"Aox2 (aldehyde oxidase 2)","reagent":3,"GFP, % of control":66.9,"viability (ATP), % of control":85.3,"call":"inactive"}
{"gene":"Serpinb6c (serine (or cysteine) peptidase inhibitor, clade B, member 6c)","reagent":1,"GFP, % of control":70.6,"viability (ATP), % of control":52.4,"call":"inactive"}
{"gene":"Serpinb6c (serine (or cysteine) peptidase inhibitor, clade B, member 6c)","reagent":2,"GFP, % of control":79.1,"viability (ATP), % of control":65.2,"call":"inactive"}
{"gene":"Serpinb6c (serine (or cysteine) peptidase inhibitor, clade B, member 6c)","reagent":3,"GFP, % of control":106,"viability (ATP), % of control":103,"call":"inactive"}
{"gene":"Spata24 (spermatogenesis associated 24)","reagent":1,"GFP, % of control":68.1,"viability (ATP), % of control":75.4,"call":"inactive"}
{"gene":"Spata24 (spermatogenesis associated 24)","reagent":2,"GFP, % of control":101,"viability (ATP), % of control":91.1,"call":"inactive"}
{"gene":"Spata24 (spermatogenesis associated 24)","reagent":3,"GFP, % of control":147,"viability (ATP), % of control":146,"call":"active"}
{"gene":"Tsc2 (TSC complex subunit 2)","reagent":1,"GFP, % of control":115,"viability (ATP), % of control":142,"call":"inactive"}
{"gene":"Tsc2 (TSC complex subunit 2)","reagent":2,"GFP, % of control":118,"viability (ATP), % of control":91.8,"call":"inactive"}
{"gene":"Tsc2 (TSC complex subunit 2)","reagent":3,"GFP, % of control":56.5,"viability (ATP), % of control":83.3,"call":"inactive"}
{"gene":"Cln6 (ceroid-lipofuscinosis, neuronal 6)","reagent":1,"GFP, % of control":47,"viability (ATP), % of control":81,"call":"inactive"}
{"gene":"Cln6 (ceroid-lipofuscinosis, neuronal 6)","reagent":2,"GFP, % of control":121,"viability (ATP), % of control":71.4,"call":"active"}
{"gene":"Cln6 (ceroid-lipofuscinosis, neuronal 6)","reagent":3,"GFP, % of control":94,"viability (ATP), % of control":93.2,"call":"inactive"}

Single entries from the entries so far.
Cln6 (ceroid-lipofuscinosis, neuronal 6) #3, viability (ATP), % of control: 93.2
For “GFP, % of control”, Tsc2 (TSC complex subunit 2) #3 is entered as 56.5
Under “GFP, % of control”, Mdc1 (mediator of DNA damage checkpoint 1) #3 shows 73.3
For “GFP, % of control”, Gpm6b (glycoprotein m6b) #3 reads 81.2
Result for Serpinb6c (serine (or cysteine) peptidase inhibitor, clade B, member 6c) #3 in “GFP, % of control”: 106

More results:
{"gene":"Zbtb18 (zinc finger and BTB domain containing 18)","reagent":1,"GFP, % of control":92.6,"viability (ATP), % of control":45.2,"call":"inactive"}
{"gene":"Zbtb18 (zinc finger and BTB domain containing 18)","reagent":2,"GFP, % of control":105,"viability (ATP), % of control":77.2,"call":"inactive"}
{"gene":"Zbtb18 (zinc finger and BTB domain containing 18)","reagent":3,"GFP, % of control":48.6,"viability (ATP), % of control":84.7,"call":"inactive"}
{"gene":"Nit2 (nitrilase family, member 2)","reagent":1,"GFP, % of control":101,"viability (ATP), % of control":88,"call":"inactive"}
{"gene":"Nit2 (nitrilase family, member 2)","reagent":2,"GFP, % of control":71.6,"viability (ATP), % of control":68.6,"call":"inactive"}
{"gene":"Nit2 (nitrilase family, member 2)","reagent":3,"GFP, % of control":101,"viability (ATP), % of control":77.7,"call":"inactive"}
{"gene":"Or5ac17 (olfactory receptor family 5 subfamily AC member 17)","reagent":1,"GFP, % of control":76.8,"viability (ATP), % of control":81.1,"call":"inactive"}
{"gene":"Or5ac17 (olfactory receptor family 5 subfamily AC member 17)","reagent":2,"GFP, % of control":88.7,"viability (ATP), % of control":42.2,"call":"inactive"}
{"gene":"Or5ac17 (olfactory receptor family 5 subfamily AC member 17)","reagent":3,"GFP, % of control":68.8,"viability (ATP), % of control":86.3,"call":"inactive"}
{"gene":"Baalc (brain and acute leukemia, cytoplasmic)","reagent":1,"GFP, % of control":64,"viability (ATP), % of control":65.2,"call":"inactive"}
{"gene":"Baalc (brain and acute leukemia, cytoplasmic)","reagent":2,"GFP, % of control":60,"viability (ATP), % of control":66.6,"call":"inactive"}
{"gene":"Baalc (brain and acute leukemia, cytoplasmic)","reagent":3,"GFP, % of control":67,"viability (ATP), % of control":67.6,"call":"inactive"}
{"gene":"Gm867 (predicted gene 867)","reagent":1,"GFP, % of control":76.2,"viability (ATP), % of control":77.2,"call":"inactive"}
{"gene":"Gm867 (predicted gene 867)","reagent":2,"GFP, % of control":133,"viability (ATP), % of control":95.5,"call":"active"}
{"gene":"Gm867 (predicted gene 867)","reagent":3,"GFP, % of control":38.4,"viability (ATP), % of control":73.3,"call":"inactive"}
{"gene":"Zfp449 (zinc finger protein 449)","reagent":1,"GFP, % of control":91,"viability (ATP), % of control":48.4,"call":"inactive"}
{"gene":"Zfp449 (zinc finger protein 449)","reagent":2,"GFP, % of control":74.7,"viability (ATP), % of control":66.7,"call":"inactive"}
{"gene":"Pdpr (pyruvate dehydrogenase phosphatase regulatory subunit)","reagent":1,"GFP, % of control":85.4,"viability (ATP), % of control":70.7,"call":"inactive"}
{"gene":"Pdpr (pyruvate dehydrogenase phosphatase regulatory subunit)","reagent":2,"GFP, % of control":96.7,"viability (ATP), % of control":50.2,"call":"inactive"}
{"gene":"Pdpr (pyruvate dehydrogenase phosphatase regulatory subunit)","reagent":3,"GFP, % of control":137,"viability (ATP), % of control":83.4,"call":"active"}
